The other results are listed elsewhere or left out. For some of these results: Construct or isoform of the protein are uncertain.
Key:
Experiment in all cases: protein microarray (ProtoArray v5.0), streptavidin-Alexa Fluor 647
Settings in all cases: 3'-biotin; 20 mM Tris (pH 7.5), 5 mM MgCl2, 100 mM KCl, 0.1% Tween-20, A/T-rich and random oligonucleotide blockers; temperature not stated; high values mean tight binding
PFKL (human) = test system: PFKL (human)
PGAM1 (human) = test system: PGAM1 (human)
PGDS (human) = test system: PGDS (human)
PGLS (human) = test system: PGLS (human)
PGM1 (human) = test system: PGM1 (human)
PGM2L1 (human) = test system: PGM2L1 (human)
PGM3 (human) = test system: PGM3 (human)
PGRMC1 (human) = test system: PGRMC1 (human)
PHF20L1 = target: T1, PHF20L1 (UniProt A8MW92)
T1 sequence: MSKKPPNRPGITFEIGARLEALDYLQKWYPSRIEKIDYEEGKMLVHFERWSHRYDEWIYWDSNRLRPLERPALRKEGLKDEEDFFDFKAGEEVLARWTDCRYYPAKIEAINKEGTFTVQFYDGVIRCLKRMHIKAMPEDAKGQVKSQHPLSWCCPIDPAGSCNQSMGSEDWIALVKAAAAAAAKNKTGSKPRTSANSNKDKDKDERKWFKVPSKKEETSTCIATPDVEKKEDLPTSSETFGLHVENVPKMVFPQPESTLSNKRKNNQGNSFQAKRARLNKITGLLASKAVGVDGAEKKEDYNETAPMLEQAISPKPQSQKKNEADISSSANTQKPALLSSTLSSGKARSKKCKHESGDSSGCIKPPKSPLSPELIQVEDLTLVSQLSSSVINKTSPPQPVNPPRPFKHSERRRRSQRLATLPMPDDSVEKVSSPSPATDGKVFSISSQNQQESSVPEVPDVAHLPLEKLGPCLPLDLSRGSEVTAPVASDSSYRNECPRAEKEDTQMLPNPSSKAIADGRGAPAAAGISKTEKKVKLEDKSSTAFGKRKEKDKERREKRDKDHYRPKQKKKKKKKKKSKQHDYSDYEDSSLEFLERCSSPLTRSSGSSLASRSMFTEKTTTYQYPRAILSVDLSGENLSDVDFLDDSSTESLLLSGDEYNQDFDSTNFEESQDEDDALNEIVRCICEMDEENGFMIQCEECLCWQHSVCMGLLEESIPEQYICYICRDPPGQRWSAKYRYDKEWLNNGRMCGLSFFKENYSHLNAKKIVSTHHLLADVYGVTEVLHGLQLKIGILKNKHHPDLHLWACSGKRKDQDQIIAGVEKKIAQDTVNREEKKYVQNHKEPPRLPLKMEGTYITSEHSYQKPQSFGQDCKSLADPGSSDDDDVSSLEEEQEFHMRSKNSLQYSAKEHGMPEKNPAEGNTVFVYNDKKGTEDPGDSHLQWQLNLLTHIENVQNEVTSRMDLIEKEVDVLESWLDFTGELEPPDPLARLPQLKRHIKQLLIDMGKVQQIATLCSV

PHF20L1 (human) = test system: PHF20L1 (human)

GGGAGGCTGAGGCAGG [G4-1 biotinylated (PQS2)]
binding signal (PFKL (human)): -0.317 z-score
binding signal (PGAM1 (human)): -0.338 z-score
binding signal (PGDS (human)): -0.317 z-score
binding signal (PGLS (human)): -0.324 z-score
binding signal (PGM1 (human)): -0.339 z-score
binding signal (PGM2L1 (human)): -0.352 z-score
binding signal (PGM3 (human)): -0.356 z-score
binding signal (PGRMC1 (human)): -0.296 z-score
binding signal (PHF20L1): 5.84 z-score
binding signal (PHF20L1 (human)): -0.306 z-score

Source: article PMC5996148
